Results are given in words; binding and its absence hold for the method and conditions named. Binding seen in cells or lysates may run through a third protein. A result given as binding can be weak or reduced; the word gives no strength.
Molecular target: AMPA-type glutamate receptor subunit GluA2 (mouse (endogenous in primary hippocampal neurons)) (UniProt P23819)
Experiment: proximity ligation; Duolink in situ PLA on fixed, permeabilized primary hippocampal mouse neurons (transfected at DIV 7, assayed at DIV 14); goat anti-EphB2 and mouse anti-GluA2; signal only when the antigens are in close proximity (<40 nm); quantified in cell bodies of GFP-positive neurons; some cultures treated with Aβ oligomers (2 μM, 24 h) or TTX (1 μM, 6 h)

Sequences of proteins named here, by UniProt entry; tags and fusion partners are left off. Residues count along the entry.
UniProt P23819, residues 25-883: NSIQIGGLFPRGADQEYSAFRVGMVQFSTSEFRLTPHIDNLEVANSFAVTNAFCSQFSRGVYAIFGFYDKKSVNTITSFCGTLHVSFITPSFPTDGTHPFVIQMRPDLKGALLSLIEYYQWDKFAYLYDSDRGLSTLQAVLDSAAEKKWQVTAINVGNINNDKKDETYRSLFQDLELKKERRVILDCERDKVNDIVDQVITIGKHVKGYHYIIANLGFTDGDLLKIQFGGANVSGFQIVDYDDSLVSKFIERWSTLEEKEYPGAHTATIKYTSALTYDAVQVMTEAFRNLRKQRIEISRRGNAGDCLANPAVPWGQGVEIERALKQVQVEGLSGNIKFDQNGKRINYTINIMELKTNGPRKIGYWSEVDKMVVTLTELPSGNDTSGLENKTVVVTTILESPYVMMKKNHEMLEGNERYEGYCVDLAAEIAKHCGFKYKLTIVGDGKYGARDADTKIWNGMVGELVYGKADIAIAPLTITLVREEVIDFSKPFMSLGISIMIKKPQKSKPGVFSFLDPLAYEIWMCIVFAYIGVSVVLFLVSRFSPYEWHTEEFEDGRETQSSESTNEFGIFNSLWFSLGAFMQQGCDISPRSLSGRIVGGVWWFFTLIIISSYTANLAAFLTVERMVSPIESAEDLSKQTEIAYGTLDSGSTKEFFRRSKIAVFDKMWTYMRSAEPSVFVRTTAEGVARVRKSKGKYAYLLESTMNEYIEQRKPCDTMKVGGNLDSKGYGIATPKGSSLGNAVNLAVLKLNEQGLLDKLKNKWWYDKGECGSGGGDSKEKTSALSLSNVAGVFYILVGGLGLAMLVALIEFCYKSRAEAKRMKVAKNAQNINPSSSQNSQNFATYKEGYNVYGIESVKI

Substance: FLAG-tagged EphB2 lacking the PDZ-binding motif (EphB2^ΔPDZ) (from UniProt P54763) (receptor)
- binding: binds

From PMC4722453
